The list shows a part of the results.
Each compound was assayed on T1, CTL2-GFP (C. trachomatis L2/434/Bu, GFP-expressing). Conditions: bulk GFP, single well; 28.5 h, 10 µM; inhibitor.
T1 construct: L2/434/Bu, GFP-expressing
Set-up: species or system HeLa; Intracellular C. trachomatis growth in HeLa cells, bulk GFP fluorescence relative to DMSO

| Structure (SMILES) | % of control remaining |
| --- | --- |
| O=C(N[C@@H](Cn1cc(Cl)c(=O)[nH]c1=O)C(=O)O)C1CCCCC1 [CBK289648] | 156.093% |
| CC(=S)NCC1CC(c2ccc(N3CC[S+]([O-])CC3)c(F)c2)=NO1 (centres unmarked) [CBK017992] | 107.414% |
| COc1nc(OC)nc(OC2=CC(=O)CC(C)(C)C2)n1 [CBK020772] | 119.73% |
| O=C(c1ccco1)N1CCN(c2cc(-c3ccc(OCc4ccccc4)cc3)ncn2)CC1 [CBK037844] | 121.814% |
| COc1ccccc1/C=N/C12CN3CN(CN(C3)C1)C2 [CBK261387] | 109.117% |
| COC(=O)[C@@H]1Cc2ncn(C(C)C)c2CN1S(=O)(=O)c1ccc([N+](=O)[O-])cc1 [CBK288985] | 134.607% |
| Cc1c(C(=O)Nc2ccc(S(=O)(=O)N(C)Cc3ccccc3)cc2)cccc1[N+](=O)[O-] [CBK267534] | 86.9395% |
| Cc1ccc(S(=O)(=O)NCCNc2ccc([N+](=O)[O-])cc2C(F)(F)F)cc1 [CBK265140] | 108.772% |
| COCCNC(=O)c1ccc(-c2ccccc2C)nc1NC(C)=O [CBK106325] | 107.463% |
| CN1C(=O)COC[C@@H]1[C@H](O)c1ccc(NC(=O)C2CC2)cc1 [CBK289057] | 128.726% |
| CC1(C)CC(=O)c2sc(NC(=O)c3cncnc3)nc2C1 [CBK144107] | 112.431% |
| CCOc1ccc(C(=O)Nc2nonc2CC)cc1 [CBK287287] | 124.455% |
| CC(=O)NC[C@H]1C[C@@H]2CCN1C[C@@H]2c1cc(-c2ccco2)nc(C)n1 [CBK289128] | 119.369% |
| CN(C)c1cccc(-c2cnc3[nH]c(=O)n(-c4ccc5[nH]ccc5c4)c3n2)c1 [CBK064682] | 134.102% |
| Cc1noc(C)c1CCC(=O)NCc1cccc(C#N)c1 [CBK305938] | 127.202% |
| O=c1[nH]ccn1CCNc1cc(-c2ccccc2Oc2ccccc2)ncn1 [CBK036966] | 122.303% |
| COc1ccccc1N1CCN(CC2CN(c3ccccc3)c3ccccc3O2)CC1 (centres unmarked) [CBK066872C] | 80.7616% |
| Nc1nc(OCc2ccccc2)cnc1-c1cccc(C(F)(F)F)c1 [CBK145179] | 100% |
| CCOc1ccccc1C(=O)Nc1cnc(-c2cccc(C)c2)c(-c2ccc(N)cc2)n1 [CBK036783] | 163.82% |
| Cc1ccc2nc(-c3ccc4c(c3)CCN4S(C)(=O)=O)cn2c1 [CBK285185] | 140.627% |
| CSc1cccc(C(=O)Nc2sc3c(c2C#N)CCN(C(C)=O)C3)c1 [CBK304390] | 131.406% |
| COc1ccc(Cl)cc1NS(=O)(=O)N(C)C [CBK025794] | 136.429% |
| N#Cc1ccc(CNC(=O)N2CCN(Cc3ccccc3)CC2)cc1 [CBK155637] | 126.009% |
| CC(=O)Nc1ccc(-c2csc(Nc3ccc(S(=O)(=O)Nc4nc(C)cc(C)n4)cc3)n2)cc1 [CBK267295] | 101.457% |
| CC(C)(C)OC(=O)N1CCN(Cc2nnc(Cc3ccccc3)o2)CC1 [CBK306223] | 96.3418% |
| Cn1cc(CNC(=O)Nc2cccc(CN3CCCCC3=O)c2)cn1 [CBK305062] | 117.167% |

Three entries from above in a different format:
O=C(N[C@@H](Cn1cc(Cl)c(=O)[nH]c1=O)C(=O)O)C1CCCCC1 [CBK289648]
  % of control remaining: 156.093%
COc1nc(OC)nc(OC2=CC(=O)CC(C)(C)C2)n1 [CBK020772]
  % of control remaining: 119.73%
Nc1nc(OCc2ccccc2)cnc1-c1cccc(C(F)(F)F)c1 [CBK145179]
  % of control remaining: 100%

Going on with the list.

| Structure (SMILES) | % of control remaining |
| --- | --- |
| CCCSc1ccc2[nH]c(NC(=O)CSc3nc[nH]n3)nc2c1 [CBK270181] | 99.4437% |
| O=C(O)c1cccc(-n2c(S)nnc2-c2ccncc2)c1 [CBK269260] | 125.142% |
| Cc1nc(NS(=O)(=O)Cc2ccccc2)sc1C(=O)O [CBK045552] | 102.146% |
| Cc1ccc(C2(O)CCN(CCNC(=O)C3CCCC3)CC2)cc1 [CBK282606] | 128.57% |
| CCS(=O)(=O)N1CCc2cc(C(=O)CSc3nnc(-c4ccco4)o3)ccc21 [CBK297126] | 144.891% |
| Clc1cncc(-c2ccccc2)n1 [CBK113371] | 152.043% |
| CS(=O)(=O)Nc1cccc(-c2cnc3[nH]c(=O)n(Cc4cccs4)c3n2)c1 [CBK064708] | 187.72% |
| Nc1ncc(-c2ccccc2)nc1-c1ccc(O)cc1 [CBK064030] | 124.332% |
| CCOc1cc(NC2CCN(C(=O)Cc3cc(C)on3)CC2)ncn1 [CBK304689] | 91.534% |
| Cc1cccc(Cn2cnc(NC(=O)Nc3cccc(Cl)c3C)n2)c1 [CBK266876] | 116.665% |
| Nc1ccc2ccc(-c3cccc(C(F)(F)F)c3)nc2n1 [CBK067629] | 167.113% |
| OC(COCc1ccccc1)CN1CCN(c2ccccc2F)CC1 (centres unmarked) [CBK074851C] | 134.468% |
| COc1ccc(C(=O)Nc2ccccc2-c2nc3ccccc3s2)cc1OC [CBK266376] | 215.655% |
| CCNc1cc(-c2ccc(N3CCOCC3)cc2)ncn1 [CBK090876] | 98.826% |
| Cc1nc(C2CCN(C(=O)c3ccncc3)CC2)c2sccn12 [CBK282235] | 121.191% |
| Nc1cccc(-c2cncc(N(CCO)CCO)n2)c1 [CBK065808] | 205.169% |
| OCCN1CC2(CCN(Cc3c(F)cccc3F)CC2)c2ccccc21 [CBK137010] | 114.176% |
| COC1C(O)=CC(=O)OC1(CCc1ccco1)CCc1ccco1 (centres unmarked) [CBK001858] | 151.763% |
| CC1=C[C@@H](CNC(=O)Nc2ccccc2)[C@H](C(C)C)C[C@H]1CC(=O)N1CCN(C)CC1 [CBK289048] | 121.75% |
| O=S(=O)(O)c1cc(S(=O)(=O)O)c2cc(O)c(S(=O)(=O)O)cc2c1 [CBK278319N] | 103.173% |
| O=C(NC(=S)Nc1cccc(-c2nc3ncccc3o2)c1)c1ccc(-c2cccc([N+](=O)[O-])c2)o1 [CBK267870] | 153.369% |
| Cc1cc2nccc([C@H]3CC[C@H](CNC(=O)C(C)C)CC3)n2n1 [CBK283475] | 117.731% |
| Cc1ccc(NC(=O)CN2C(=O)S/C(=C\c3cc(C)n(-c4cccc(C(=O)O)c4)c3C)C2=O)cc1 [CBK264725] | 100% |
| Cc1ncsc1C(=O)N1CCC(c2cccc(Cc3ccccc3Cl)n2)CC1 [CBK286146] | 101.213% |
| O=C(O)CCC(=O)NNC(=O)c1cccc(O)c1 [CBK262116] | 100% |
| COc1cc2c(cc1OC)CN(C(=O)c1cncnc1)CC2 [CBK122748] | 121.59% |

| Structure (SMILES) | % of control remaining |
| --- | --- |
| CSCCC(=O)NCCc1c[nH]c2ccc(Cl)cc12 [CBK159775] | 178.039% |
| Cc1cc(/C=C2/C(=N)N3N=C(Cc4ccccc4)SC3=NC2=O)c(C)n1-c1ccccc1 [CBK264318] | 136.472% |
| O=c1sc(Nc2ccccc2)nc2ccsc12 [CBK287853] | 77.2158% |
| COc1cc(CNc2nc(-c3ccc(C(C)(C)C)cc3)cn3ccnc23)cc(OC)c1OC [CBK066615] | 89.7637% |
| CCc1noc(C)c1C(=O)N1CCN(C2CCCC2O)CC1 (centres unmarked) [CBK304869] | 125.563% |
| c1ccc(CCNc2cc(-c3cccc4ccccc34)ncn2)nc1 [CBK037762] | 123.708% |
| CCNC(=S)N[C@@H]1CC[C@@]2(Cc3ccc(OC)c(OC)c3)CCN(C)[C@H]2C1 [CBK023811] | 112.354% |
| CCC(=O)N[C@H](CC)Cn1ncc2ccccc2c1=O [CBK284303] | 156.552% |
| Cc1cnccc1-c1cn(C)nc1-c1ccc(CNC(=O)c2cccc(N(C)C)c2)cc1 [CBK285633] | 121.702% |
| O=C(Cc1ccccc1)Nc1ncc(Cc2ccccc2)s1 [CBK287322] | 129.945% |
| CSc1cccc(NC(=O)CN(C)S(=O)(=O)c2ccc3ccccc3c2)c1 [CBK266708] | 119.197% |
| CN(C)S(=O)(=O)n1cc(/C=C/c2nc(N)nc(-c3ccccc3O)n2)c2ccccc21 [CBK268386] | 72.2575% |
| O=C(CSc1n[nH]c(=O)[nH]c1=O)N/N=C/c1ccc(O)cc1 [CBK263488] | 117.503% |
| O=C(c1ccc([N+](=O)[O-])cc1)C12CN3CN(CN(C3)C1)C2 [CBK011238] | 100% |
| O=C(Nc1ccccc1)Nc1ccc2c(c1)S(=O)(=O)c1cc(NC(=O)Nc3ccccc3)ccc1-2 [CBK262320] | 64.8384% |
| O=C(NC1Cc2ccccc2C1)c1cccc(-c2ccc(CC3CCCNC3=O)cc2)c1 (centres unmarked) [CBK285579] | 123.464% |
| CC(CNC(=O)C1CCCC1)N1CCc2ccccc2C1 (centres unmarked) [CBK304555] | 72.1835% |
| Cc1[nH]c(=O)[nH]c(=S)c1C(=O)NCc1ccc(Cl)cc1 [CBK115489] | 95.9459% |
| CC(=O)N(C)c1nc(-c2cccc(N(C)C)c2)ccc1C(=O)NCc1cccnc1 [CBK076639] | 190.396% |
| COCCn1ccnc1C1CCN(C(=O)C(O)c2cccc(Cl)c2)CC1 (centres unmarked) [CBK306901] | 157.829% |
| CC(=O)N1CCC(c2nc(Cc3cccs3)no2)C1 (centres unmarked) [CBK282998] | 99.3842% |
| Cc1cc(C(=O)Nc2ccc([C@@H](O)[C@H]3COCC(=O)N3Cc3ccccc3)cc2)n(C)n1 [CBK289669] | 133.327% |
| O=C(CCN1C(=O)c2cccc3cccc(c23)C1=O)Oc1ccc2c(c1)OCO2 [CBK266237] | 115.696% |
| Cc1cccc(N2CCN(CC(=O)Nc3cc(Cl)ccc3C#N)CC2)c1 [CBK306055] | 86.0847% |
| Cc1ccc(SCCNS(=O)(=O)c2ccc3ccccc3c2)cc1 [CBK267504] | 130.611% |

From paper PMC12040169 (PLOS Biology, 2025)
